Experimental data reported in publication PMC9428467.
No constants are given. Whether binding was seen depends on the method and setting. Binding seen in cells or lysates may run through a third protein. Binding calls can cover weak binding; strength is not graded here. Sequences can lack the tags named with a protein.

Experiments:
[1] = molecular target: T1, zebrafish MDA5, Flag-tagged (Flag-DrMDA5) (zebrafish); experiment: co-IP; HEK293T cells co-transfected (5 ug each), with or without poly(I:C) at 200 ng/ml; lysates immunoprecipitated with anti-Flag Ab, blot with anti-myc Ab
T1 sequence: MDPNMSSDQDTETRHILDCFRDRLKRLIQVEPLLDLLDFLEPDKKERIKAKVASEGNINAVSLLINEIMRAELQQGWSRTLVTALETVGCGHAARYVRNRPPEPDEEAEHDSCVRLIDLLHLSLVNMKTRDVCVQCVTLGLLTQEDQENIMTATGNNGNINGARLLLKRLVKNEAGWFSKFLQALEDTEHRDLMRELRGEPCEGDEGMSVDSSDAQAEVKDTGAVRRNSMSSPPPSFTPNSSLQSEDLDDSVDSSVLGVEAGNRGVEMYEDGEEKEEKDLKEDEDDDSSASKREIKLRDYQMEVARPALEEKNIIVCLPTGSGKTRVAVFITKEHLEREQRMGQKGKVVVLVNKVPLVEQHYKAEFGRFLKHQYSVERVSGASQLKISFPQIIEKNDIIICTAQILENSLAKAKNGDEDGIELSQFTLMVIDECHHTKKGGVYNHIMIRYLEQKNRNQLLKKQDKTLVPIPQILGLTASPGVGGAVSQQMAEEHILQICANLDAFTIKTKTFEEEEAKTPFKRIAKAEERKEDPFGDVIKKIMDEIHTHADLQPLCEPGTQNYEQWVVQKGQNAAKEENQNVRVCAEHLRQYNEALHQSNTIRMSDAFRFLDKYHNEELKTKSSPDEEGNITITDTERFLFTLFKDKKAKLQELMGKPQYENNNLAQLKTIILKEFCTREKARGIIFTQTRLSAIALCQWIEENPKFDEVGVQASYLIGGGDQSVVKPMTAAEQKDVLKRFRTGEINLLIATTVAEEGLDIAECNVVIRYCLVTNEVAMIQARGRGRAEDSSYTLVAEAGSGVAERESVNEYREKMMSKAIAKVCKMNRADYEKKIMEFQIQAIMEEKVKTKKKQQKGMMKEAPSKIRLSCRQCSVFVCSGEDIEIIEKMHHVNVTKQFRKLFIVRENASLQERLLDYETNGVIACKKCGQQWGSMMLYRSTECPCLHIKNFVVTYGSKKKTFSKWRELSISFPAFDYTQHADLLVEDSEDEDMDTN

[2] = molecular target: in vitro-translated zebrafish LGP2, Flag-tagged (DrLGP2-Flag) (zebrafish); experiment: pull-down; 50 ul in vitro-translated DrLGP2-Flag incubated with in vitro-translated HA-tagged protein in NP40 lysis buffer at 4 C for 12 h; bead-bound complex blotted with anti-Tag Ab

Molecule: zebrafish LGP2, myc-tagged (LGP2-myc)
- binding [1]: binds

B1: in vitro-translated zebrafish MDA5, HA-tagged (DrMDA5-HA) (protein, UniProt A0A8M1P1G3 1-997)
chain: MDPNMSSDQDTETRHILDCFRDRLKRLIQVEPLLDLLDFLEPDKKERIKAKVASEGNINAVSLLINEIMRAELQQGWSRTLVTALETVGCGHAARYVRNRPPEPDEEAEHDSCVRLIDLLHLSLVNMKTRDVCVQCVTLGLLTQEDQENIMTATGNNGNINGARLLLKRLVKNEAGWFSKFLQALEDTEHRDLMRELRGEPCEGDEGMSVDSSDAQAEVKDTGAVRRNSMSSPPPSFTPNSSLQSEDLDDSVDSSVLGVEAGNRGVEMYEDGEEKEEKDLKEDEDDDSSASKREIKLRDYQMEVARPALEEKNIIVCLPTGSGKTRVAVFITKEHLEREQRMGQKGKVVVLVNKVPLVEQHYKAEFGRFLKHQYSVERVSGASQLKISFPQIIEKNDIIICTAQILENSLAKAKNGDEDGIELSQFTLMVIDECHHTKKGGVYNHIMIRYLEQKNRNQLLKKQDKTLVPIPQILGLTASPGVGGAVSQQMAEEHILQICANLDAFTIKTKTFEEEEAKTPFKRIAKAEERKEDPFGDVIKKIMDEIHTHADLQPLCEPGTQNYEQWVVQKGQNAAKEENQNVRVCAEHLRQYNEALHQSNTIRMSDAFRFLDKYHNEELKTKSSPDEEGNITITDTERFLFTLFKDKKAKLQELMGKPQYENNNLAQLKTIILKEFCTREKARGIIFTQTRLSAIALCQWIEENPKFDEVGVQASYLIGGGDQSVVKPMTAAEQKDVLKRFRTGEINLLIATTVAEEGLDIAECNVVIRYCLVTNEVAMIQARGRGRAEDSSYTLVAEAGSGVAERESVNEYREKMMSKAIAKVCKMNRADYEKKIMEFQIQAIMEEKVKTKKKQQKGMMKEAPSKIRLSCRQCSVFVCSGEDIEIIEKMHHVNVTKQFRKLFIVRENASLQERLLDYETNGVIACKKCGQQWGSMMLYRSTECPCLHIKNFVVTYGSKKKTFSKWRELSISFPAFDYTQHADLLVEDSEDEDMDTN
- binding [2]: binds
